Test [1] deals with longest isoform (441aa) of human Tau with the P301L mutation, as Tau tangles and neuropil threads in brain sections of biGT transgenic mice (human) (UniProt P10636). Put plainly: TAUPIR immunostaining (figure legend).
Test [2] has the same target. As to the kind of experiment: TAUPIR immunostaining of biGT mouse brain sections.

Protein sequences, listed by entry. Tags and fused reporters are not part of them. Lines headed by an entry give the natural chain unless they say otherwise; changes in a name come on top.
UniProt P10636: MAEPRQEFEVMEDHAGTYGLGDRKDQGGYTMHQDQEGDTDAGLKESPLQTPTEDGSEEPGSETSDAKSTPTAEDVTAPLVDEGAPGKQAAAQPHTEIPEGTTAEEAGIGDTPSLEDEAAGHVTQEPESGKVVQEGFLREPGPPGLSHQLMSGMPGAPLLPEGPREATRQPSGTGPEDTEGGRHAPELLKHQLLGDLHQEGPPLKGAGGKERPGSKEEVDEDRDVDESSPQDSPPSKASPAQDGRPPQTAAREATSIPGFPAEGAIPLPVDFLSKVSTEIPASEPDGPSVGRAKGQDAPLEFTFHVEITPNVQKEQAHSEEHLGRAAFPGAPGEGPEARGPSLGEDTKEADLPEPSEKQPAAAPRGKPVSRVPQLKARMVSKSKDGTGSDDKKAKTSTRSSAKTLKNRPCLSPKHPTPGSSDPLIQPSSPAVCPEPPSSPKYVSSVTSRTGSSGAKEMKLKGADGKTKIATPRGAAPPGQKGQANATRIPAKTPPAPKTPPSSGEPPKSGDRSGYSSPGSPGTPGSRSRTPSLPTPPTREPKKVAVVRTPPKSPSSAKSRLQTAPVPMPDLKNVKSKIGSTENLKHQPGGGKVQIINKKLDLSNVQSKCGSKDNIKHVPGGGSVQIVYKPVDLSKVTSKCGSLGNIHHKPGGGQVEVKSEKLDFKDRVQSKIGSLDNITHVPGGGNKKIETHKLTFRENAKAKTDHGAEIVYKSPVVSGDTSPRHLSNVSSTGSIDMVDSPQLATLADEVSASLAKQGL

This is an account of results in US9657091 (AC IMMUNE S A, dated 2017).

Results are given in words; binding and its absence hold for the method and conditions named. Some results given as binding are weak or reduced against the parent protein; the word gives no strength.

B1: humanized antibody hACl-36-2B6-Ab1 (IgG4) (antibody, V domains shown)
VH: QVQLVQSGAEVKKPGSSVKVSCKASGYTFTDYYMNWVRQAPGQGLEWIGDINPNRGGTTYNQKFKGRVTITVDKSTSTAYMELSSLRSEDTAVYYCASYYAVGYWGQGTTVTVSS
VL: DIVMTQTPLSLPVTPGEPASISCRSSQSLVHSHGKTYLHWYLQKPGQSPQLLIYKVSNRFSGVPDRFSGSGSGTDFTLKISRVEAEDVGVYFCSQTAHFPYTFGGGTKVEIKR
notes: Humanized IgG4, kappa; also called 2B6A10C11
For the molecule B1, the binding result in test [1] and in test [2] was “binds” each time.

B2: humanized antibody hACl-36-3A8-Ab1 (IgG4) (antibody, V domains shown)
VH: QVQLVQSGAEVKKPGSSVKVSCKASGYTFTDYYMNWVRQAPGQGLEWIGDINPNRGGTTYNQKFKGRVTITVDKSTSTAYMELSSLRSEDTAVYYCASYYAVGYWGQGTTVTVSS
VL: DIVMTQTPLSLPVTPGEPASISCRSSQRLVHSHGKTYLHWYLQKPGQSPQLLIYKVSNRFSGVPDRFSGSGSGTDFTLKISRVEAEDVGVYFCSQTAHFPYTFGGGTKVEIKR
notes: Humanized IgG4, kappa; Tested as a supernatant containing the antibody; also called 3A8A12G7
Consider B2, for which the binding result in test [1] and in test [2] was “binds” each time.
